Results deposited as PubChem BioAssay AID1508597 (Cure First, 2020).
This is a random part of the about 2,100 reagents, under one of the conditions tested. 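Calls flag viability under 80% in either arm, not effects specific to rucaparib; the reference for percent is not stated.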 Unmarked entries are inactive. A reagent listed more than once was tested more than once; the source does not tell the runs apart. Not stated in the record: the 100% reference.

- Aim: 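Survival screen with siRNA in ovarian cancer cells derived from patients, with or without rucaparib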 (primary screen)
- Cell system: human ovarian carcinoma lines grown from tumours: OCI-P5x (papillary serous) and OCI-C5x (clear cell)
- Reagent: siRNA pool against human genes, 1.25 pmol siRNA per well
- Duration: 72 h or 96 h, depending on the cell culture
- Challenge: rucaparib 20 µM (about IC30) or vehicle, present until read-out
- Rucaparib or vehicle: Vehicle
- Cell line: OCI-C5x (clear cell)
- Read-out: 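ATP luminescence measured at 72 or 96 h according to the culture, then normalised and expressed as percent viability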
- Reading the numbers: viability, normalised: higher = more viable cells remaining
- Active means: 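Active when normalised viability falls below 80 percent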
- Calls: active = viability under 80%; inactive = viability 80% or more

{"Gene": "PCDHB14", "technical replicate": "1", "viability, normalised (%)": "39.4 (active)"}
{"Gene": "PCDHB14", "technical replicate": "2", "viability, normalised (%)": "30.2 (active)"}
{"Gene": "PCDHB14", "technical replicate": "3", "viability, normalised (%)": "24.9 (active)"}
{"Gene": "CAMK1G", "technical replicate": "1", "viability, normalised (%)": "52.1 (active)"}
{"Gene": "CAMK1G", "technical replicate": "1", "viability, normalised (%)": "50 (active)"}
{"Gene": "CAMK1G", "technical replicate": "2", "viability, normalised (%)": "60.2 (active)"}
{"Gene": "CAMK1G", "technical replicate": "2", "viability, normalised (%)": "64.8 (active)"}
{"Gene": "CAMK1G", "technical replicate": "3", "viability, normalised (%)": "54.2 (active)"}
{"Gene": "CAMK1G", "technical replicate": "3", "viability, normalised (%)": "48 (active)"}
{"Gene": "PARP10", "technical replicate": "1", "viability, normalised (%)": "47.8 (active)"}
{"Gene": "PARP10", "technical replicate": "2", "viability, normalised (%)": "33 (active)"}
{"Gene": "PARP10", "technical replicate": "3", "viability, normalised (%)": "37.3 (active)"}
{"Gene": "PRG3", "technical replicate": "1", "viability, normalised (%)": "58.8 (active)"}
{"Gene": "PRG3", "technical replicate": "2", "viability, normalised (%)": "51.2 (active)"}
{"Gene": "PRG3", "technical replicate": "3", "viability, normalised (%)": "45.5 (active)"}
{"Gene": "DDX6", "technical replicate": "1", "viability, normalised (%)": "42.9 (active)"}
{"Gene": "DDX6", "technical replicate": "2", "viability, normalised (%)": "51.5 (active)"}
{"Gene": "DDX6", "technical replicate": "3", "viability, normalised (%)": "38 (active)"}
{"Gene": "TDRD7", "technical replicate": "1", "viability, normalised (%)": "48.2 (active)"}
{"Gene": "TDRD7", "technical replicate": "2", "viability, normalised (%)": "43.4 (active)"}
{"Gene": "TDRD7", "technical replicate": "3", "viability, normalised (%)": "46.6 (active)"}
{"Gene": "HIF1A", "technical replicate": "1", "viability, normalised (%)": "64.4 (active)"}
{"Gene": "HIF1A", "technical replicate": "2", "viability, normalised (%)": "58.1 (active)"}
{"Gene": "HIF1A", "technical replicate": "3", "viability, normalised (%)": "58.2 (active)"}
{"Gene": "RAD17", "technical replicate": "1", "viability, normalised (%)": "59 (active)"}
{"Gene": "RAD17", "technical replicate": "2", "viability, normalised (%)": "46.7 (active)"}
{"Gene": "RAD17", "technical replicate": "3", "viability, normalised (%)": "51.2 (active)"}
{"Gene": "MRGBP", "technical replicate": "1", "viability, normalised (%)": "26.5 (active)"}
{"Gene": "MRGBP", "technical replicate": "2", "viability, normalised (%)": "46.8 (active)"}
{"Gene": "MRGBP", "technical replicate": "3", "viability, normalised (%)": "47.5 (active)"}
{"Gene": "TEAD4", "technical replicate": "1", "viability, normalised (%)": "62.9 (active)"}
{"Gene": "TEAD4", "technical replicate": "2", "viability, normalised (%)": "65.4 (active)"}
{"Gene": "TEAD4", "technical replicate": "3", "viability, normalised (%)": "72.7 (active)"}

Single entries from above.
For “viability, normalised (%)”, PRG3, technical replicate 3 shows 45.5 (active)
For “viability, normalised (%)”, PARP10, technical replicate 3 shows 37.3 (active)
RAD17, technical replicate 3, viability, normalised (%) → 51.2 (active)
MRGBP, technical replicate 1, viability, normalised (%) = 26.5 (active)
